PubChem BioAssay AID1508588, Peter MacCallum Cancer Centre, 2020
Test: 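Genome-wide search for knock-downs that heighten vemurafenib action in melanoma cells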 (primary screen). System: human WM266.4 melanoma cells (BRAF V600 mutant). Knock-down reagent: siRNA pool against human genes, 40 nM. Time to read-out: 96 h from transfection to read-out. Challenge: vemurafenib 300 nM (about IC25), added 48 h after transfection, for 48 h; comparison arm got DMSO vehicle only. Detection: 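Cell gain (DAPI nuclei at end minus before drug, mean of two replicates) and medium lactate by absorbance per cell, both as ratio to non-targeting siRNA, also grouped into fold-change classes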. Reading the numbers: cell gain with vemurafenib: higher = more cell gain than with non-targeting siRNA; lactate per cell with vemurafenib: higher = more lactate made per cell. Hit rule: 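Enhancement is called by pairing each knock-down's vehicle-arm and drug-arm fold-change classes for viability or glycolysis; which class combinations qualify is not given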. Meaning of the calls: active = enhances vemurafenib effect; inactive = no enhancement seen.
This is a random part of about 18,000 reagents tested. Over the whole deposit, 790 (4.4%) are marked active. 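Calls rest on a combination of fold-change classes in drug and vehicle arms, not all shown here.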

no.	gene	cell gain with vemurafenib	lactate per cell with vemurafenib	outcome
1	NPAS2	0.67	0.48	inactive
2	TBC1D17	0.62	1.34	inactive
3	GEMIN2	0.44	1.04	inactive
4	ACSF2	0.29	1.71	inactive
5	VPS13C	0.68	0.7	inactive
6	TSHZ1	0.38	2.39	inactive
7	CLCF1	0.58	0.78	inactive
8	KCNN2	0.65	0.86	inactive
9	RBP1	0.12	1.25	inactive
10	TDRD1	0.67	0.9	inactive
11	SLC16A2	0.6	0.76	inactive
12	DMRTA1	0.05	0.76	inactive
13	TBATA	0.34	1.5	inactive
14	TK1	0.68	0.5	inactive
15	TRAPPC6B	0.71	0.5	inactive
16	PLEKHA1	1.3	0.66	inactive
17	MYBPC2	0.85	0.24	inactive
18	COL13A1	0.54	1.28	inactive
19	RAPH1	0.59	0.48	inactive
20	OR5K2	-0.01	1.46	inactive
21	LRRN3	0.72	0.38	active
22	RASAL1	0.71	0.83	inactive
23	AKR1C4	1.18	0.7	inactive
24	ZMYM4	0.77	0.46	inactive
25	SIRAL1	0.68	0.3	inactive
26	EPB41L4B	0.6	0.76	inactive
27	DVL2	0.16	2.38	inactive
28	TLE4	0.36	1.64	inactive
29	RNASET2	0.72	0.98	inactive
30	LAMB4	0.61	1.72	inactive
31	TMEM9B	0.32	1.19	inactive
32	RCN2	0.99	0.96	inactive
33	ACSS2	0.5	1.43	inactive
34	DIABLO	0.45	0.88	inactive

Ordered by “cell gain with vemurafenib” (low to high): some entries from above.
gene	cell gain with vemurafenib	lactate per cell with vemurafenib	outcome
TK1	0.68	0.5	inactive
TRAPPC6B	0.71	0.5	inactive
PLEKHA1	1.3	0.66	inactive
